Results are given in words; binding and its absence hold for the method and conditions named. In cells and extracts the contact can be indirect. Some binding calls cover weakened binding; strength is not graded here.
Biological target: HA-tagged DOT1L (UniProt Q8TEK3)
Experiment: co-IP; HEK-293T transfected with DOT1L-HA and AF10 vectors, 48 h; Pierce IP-Lysis Buffer; IgG or HA antibodies 16 h at 4 °C, DynaBead Protein A; immunoblot with AF10 antibody

Sequences of proteins named here, by UniProt entry; tags and fusion partners are left off.
UniProt Q8TEK3: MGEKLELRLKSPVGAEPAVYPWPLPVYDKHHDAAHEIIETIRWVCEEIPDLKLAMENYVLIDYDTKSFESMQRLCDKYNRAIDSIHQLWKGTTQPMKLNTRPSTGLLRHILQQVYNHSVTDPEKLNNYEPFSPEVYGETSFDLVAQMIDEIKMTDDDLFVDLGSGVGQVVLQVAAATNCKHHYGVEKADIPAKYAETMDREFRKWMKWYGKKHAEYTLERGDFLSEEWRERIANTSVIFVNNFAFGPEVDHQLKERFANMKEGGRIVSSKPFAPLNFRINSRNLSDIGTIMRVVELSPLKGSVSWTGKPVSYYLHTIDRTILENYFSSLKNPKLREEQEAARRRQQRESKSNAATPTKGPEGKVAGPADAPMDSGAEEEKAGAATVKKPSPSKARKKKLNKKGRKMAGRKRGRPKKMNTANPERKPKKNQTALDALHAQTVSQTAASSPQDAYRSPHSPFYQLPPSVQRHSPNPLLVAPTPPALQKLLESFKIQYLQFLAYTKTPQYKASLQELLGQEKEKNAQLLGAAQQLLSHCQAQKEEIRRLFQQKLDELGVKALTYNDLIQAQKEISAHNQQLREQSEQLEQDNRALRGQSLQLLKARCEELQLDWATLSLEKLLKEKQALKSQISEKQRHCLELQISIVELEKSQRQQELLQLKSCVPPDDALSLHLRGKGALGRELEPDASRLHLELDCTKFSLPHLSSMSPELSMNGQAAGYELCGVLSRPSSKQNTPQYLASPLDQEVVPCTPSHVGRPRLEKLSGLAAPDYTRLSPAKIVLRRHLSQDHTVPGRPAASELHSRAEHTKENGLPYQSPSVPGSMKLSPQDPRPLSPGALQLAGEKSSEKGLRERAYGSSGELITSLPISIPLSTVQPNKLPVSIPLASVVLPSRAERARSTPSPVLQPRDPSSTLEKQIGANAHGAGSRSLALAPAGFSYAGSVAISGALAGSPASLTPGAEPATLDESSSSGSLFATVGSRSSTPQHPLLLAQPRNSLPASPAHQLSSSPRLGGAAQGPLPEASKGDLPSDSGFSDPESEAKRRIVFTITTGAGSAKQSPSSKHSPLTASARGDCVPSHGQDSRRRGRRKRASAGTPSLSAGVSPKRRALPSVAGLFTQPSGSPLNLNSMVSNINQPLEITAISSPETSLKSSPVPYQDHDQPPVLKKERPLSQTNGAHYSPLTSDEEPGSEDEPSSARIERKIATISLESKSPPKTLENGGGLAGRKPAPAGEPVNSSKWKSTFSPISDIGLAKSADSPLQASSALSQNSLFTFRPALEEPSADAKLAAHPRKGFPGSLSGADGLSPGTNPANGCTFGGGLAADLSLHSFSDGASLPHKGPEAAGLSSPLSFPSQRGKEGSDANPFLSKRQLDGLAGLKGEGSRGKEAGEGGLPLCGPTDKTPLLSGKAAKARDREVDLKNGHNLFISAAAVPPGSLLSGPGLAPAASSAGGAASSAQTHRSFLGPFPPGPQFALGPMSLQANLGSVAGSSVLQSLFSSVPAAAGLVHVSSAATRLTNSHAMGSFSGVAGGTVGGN

binding: binds
B1: Wild-type AF10, expressed from cDNA (protein, UniProt P55197 1-1068)
chain: MVSSDRPVSLEDEVSHSMKEMIGGCCVCSDERGWAENPLVYCDGHGCSVAVHQACYGIVQVPTGPWFCRKCESQERAARVRCELCPHKDGALKRTDNGGWAHVVCALYIPEVQFANVSTMEPIVLQSVPHDRYNKTCYICDEQGRESKAATGACMTCNKHGCRQAFHVTCAQFAGLLCEEEGNGADNVQYCGYCKYHFSKLKKSKRGSNRSYDQSLSDSSSHSQDKHHEKEKKKYKEKDKHKQKHKKQPEPSPALVPSLTVTTEKTYTSTSNNSISGSLKRLEDTTARFTNANFQEVSAHTSSGKDVSETRGSEGKGKKSSAHSSGQRGRKPGGGRNPGTTVSAASPFPQGSFSGTPGSVKSSSGSSVQSPQDFLSFTDSDLRNDSYSHSQQSSATKDVHKGESGSQEGGVNSFSTLIGLPSTSAVTSQPKSFENSPGDLGNSSLPTAGYKRAQTSGIEEETVKEKKRKGNKQSKHGPGRPKGNKNQENVSHLSVSSASPTSSVASAAGSITSSSLQKSPTLLRNGSLQSLSVGSSPVGSEISMQYRHDGACPTTTFSELLNAIHNGIYNSNDVAVSFPNVVSGSGSSTPVSSSHLPQQSSGHLQQVGALSPSAVSSAAPAVATTQANTLSGSSLSQAPSHMYGNRSNSSMAALIAQSENNQTDQDLGDNSRNLVGRGSSPRGSLSPRSPVSSLQIRYDQPGNSSLENLPPVAASIEQLLERQWSEGQQFLLEQGTPSDILGMLKSLHQLQVENRRLEEQIKNLTAKKERLQLLNAQLSVPFPTITANPSPSHQIHTFSAQTAPTTDSLNSSKSPHIGNSFLPDNSLPVLNQDLTSSGQSTSSSSALSTPPPAGQSPAQQGSGVSGVQQVNGVTVGALASGMQPVTSTIPAVSAVGGIIGALPGNQLAINGIVGALNGVMQTPVTMSQNPTPLTHTTVPPNATHPMPATLTNSASGLGLLSDQQRQILIHQQQFQQLLNSQQLTPEQHQAFLYQLMQHHHQQHHQPELQQLQIPGPTQIPINNLLAGTQAPPLHTATTNPFLTIHGDNASQKVARLSDKTGPVAQEKS

Source: publication PMC8254283
